Results on 3 molecules are retold here after PMC4086815.

The chains behind the UniProt entries cited, without tags or fusion partners.
UniProt Q02732: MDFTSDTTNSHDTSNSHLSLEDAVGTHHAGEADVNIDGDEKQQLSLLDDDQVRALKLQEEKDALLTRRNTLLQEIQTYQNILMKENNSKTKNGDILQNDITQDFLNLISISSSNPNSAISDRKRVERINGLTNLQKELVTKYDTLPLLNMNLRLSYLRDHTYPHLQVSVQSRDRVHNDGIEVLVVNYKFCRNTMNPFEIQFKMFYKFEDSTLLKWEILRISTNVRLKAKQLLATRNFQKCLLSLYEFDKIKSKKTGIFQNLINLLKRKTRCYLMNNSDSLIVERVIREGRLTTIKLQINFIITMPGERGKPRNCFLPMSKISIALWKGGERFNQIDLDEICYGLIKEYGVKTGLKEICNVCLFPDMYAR
UniProt P38907: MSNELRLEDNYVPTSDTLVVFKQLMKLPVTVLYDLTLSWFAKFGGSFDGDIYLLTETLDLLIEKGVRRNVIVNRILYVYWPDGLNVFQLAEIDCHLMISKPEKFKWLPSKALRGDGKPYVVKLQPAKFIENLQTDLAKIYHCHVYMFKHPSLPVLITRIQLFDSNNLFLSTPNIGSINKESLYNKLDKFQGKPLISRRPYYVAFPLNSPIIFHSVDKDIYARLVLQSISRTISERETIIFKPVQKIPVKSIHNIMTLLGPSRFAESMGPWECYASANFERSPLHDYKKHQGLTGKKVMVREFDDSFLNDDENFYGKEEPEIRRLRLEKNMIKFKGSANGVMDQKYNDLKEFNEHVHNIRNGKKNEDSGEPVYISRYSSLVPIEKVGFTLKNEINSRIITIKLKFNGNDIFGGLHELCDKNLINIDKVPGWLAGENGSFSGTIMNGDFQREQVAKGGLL
UniProt P47167: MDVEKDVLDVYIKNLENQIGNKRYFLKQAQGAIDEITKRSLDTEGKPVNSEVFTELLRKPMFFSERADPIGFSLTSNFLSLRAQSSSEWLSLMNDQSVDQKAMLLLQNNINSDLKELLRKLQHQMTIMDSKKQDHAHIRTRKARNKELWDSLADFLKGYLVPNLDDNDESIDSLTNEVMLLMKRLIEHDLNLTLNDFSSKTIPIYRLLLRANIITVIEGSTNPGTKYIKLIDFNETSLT

Results are given in words; binding and its absence hold for the method and conditions named. For some assays here: In cells and extracts the contact can be indirect. Some entries that bind do so weakly or less than the wild type. Where a sequence is shown, tags or fusion partners need not be part of it.

Experiment [1] deals with T1, GST-Bbp1p (budding yeast) (UniProt Q12365).
T1 sequence: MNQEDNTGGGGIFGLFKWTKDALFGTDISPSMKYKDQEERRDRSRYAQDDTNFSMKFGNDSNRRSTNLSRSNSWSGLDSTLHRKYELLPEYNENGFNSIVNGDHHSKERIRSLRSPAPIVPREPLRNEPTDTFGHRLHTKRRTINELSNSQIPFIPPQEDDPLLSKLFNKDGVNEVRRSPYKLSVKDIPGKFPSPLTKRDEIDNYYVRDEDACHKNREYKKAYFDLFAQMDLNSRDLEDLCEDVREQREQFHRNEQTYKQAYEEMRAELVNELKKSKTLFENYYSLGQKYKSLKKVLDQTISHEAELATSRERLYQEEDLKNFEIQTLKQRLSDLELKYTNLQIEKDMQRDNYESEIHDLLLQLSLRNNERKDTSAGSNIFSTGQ
The experiment can be described thus: pull-down; purified bead-bound GST-Bbp1p (glutathione Sepharose) mixed with cell extracts of AP22 yeast expressing HA-tagged proteins; eluted proteins blotted with anti-HA and anti-GST; only the target purified.

In experiment [2] the target is Ctf19p fused to the GAL4 binding domain (budding yeast) (UniProt Q02732). The experiment can be described thus: two-hybrid; strain PJ69-4A; pGAD424 (GAL4 activation domain fusions of Bbp1p) and pGBT9 (GAL4 binding domain fusions); growth at 30 C on SC plates lacking leucine, tryptophan and histidine.
The target of experiment [3] is Chl4p fused to the GAL4 binding domain (budding yeast) (UniProt P38907). The experiment is described as above.
Experiment [4] addresses BD-Mcm22p (budding yeast) (UniProt P47167). Described as above.

With HA-Chl4p (from UniProt P38907 1-458), in experiment [1], the binding result is recorded as “binds”. As for HA-Ctf19p (from UniProt Q02732 1-369), the binding entry in experiment [1] is recorded as “binds”.

B1: Bbp1p, full length ORF fused to the GAL4 activation domain (protein, UniProt Q12365 1-385)
chain: T1 sequence
As to B1, the binding result in experiment [2], in experiment [3] and in experiment [4] was “binds” throughout.
